Assay results as given in PMC3959589 (Analytical and bioanalytical chemistry, 2014).

Amino acid sequences for entries named in this document (tags omitted). Residues count along the entry.
UniProt P02768, 25-609: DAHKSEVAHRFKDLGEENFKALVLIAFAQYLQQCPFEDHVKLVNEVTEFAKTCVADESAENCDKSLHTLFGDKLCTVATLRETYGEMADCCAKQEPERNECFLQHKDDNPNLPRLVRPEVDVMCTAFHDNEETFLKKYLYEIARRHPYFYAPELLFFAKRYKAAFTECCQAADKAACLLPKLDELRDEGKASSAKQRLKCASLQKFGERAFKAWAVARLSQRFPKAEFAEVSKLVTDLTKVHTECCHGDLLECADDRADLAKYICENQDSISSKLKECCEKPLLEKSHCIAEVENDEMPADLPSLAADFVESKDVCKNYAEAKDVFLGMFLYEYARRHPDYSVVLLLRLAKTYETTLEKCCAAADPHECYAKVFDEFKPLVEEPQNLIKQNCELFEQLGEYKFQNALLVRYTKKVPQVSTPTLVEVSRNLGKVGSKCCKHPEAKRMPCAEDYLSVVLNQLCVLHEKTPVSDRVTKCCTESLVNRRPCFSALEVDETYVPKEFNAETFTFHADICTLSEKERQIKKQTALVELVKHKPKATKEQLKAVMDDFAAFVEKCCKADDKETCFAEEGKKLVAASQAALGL

Columns and labels:
[1] = molecular target: T1, human serum albumin (HSA) (Homo sapiens, UniProt P02768); conditions: ITC
[2] = test system: HSA; conditions: cited from earlier work
[3] = molecular target: T1, human serum albumin (HSA); conditions: dose-response, 500 nM Red Mega 500, 0.2 mg/mL HSA

## COc1ccc2cc([C@H](C)C(=O)O)ccc2c1 [naproxen]
[1]
  heat generated upon binding: 52.8 ± 2.2 kcal/mol
[2]
  efficacy in HSA binding assay: large efficacy
[3]
  efficacy of inhibition of HSA–Red Mega 500 binding: comparable to piroxicam
